Measurements as given in US20080292620A1.
Positions count from the first letter of the chain named. These are yes or no findings as the source states them, for the method shown. Some binding calls cover weakened binding; strength is not graded here.

Amino acid sequences for entries named in this document (tags omitted). A change or cut given only in a name is not applied to a line headed by its entry.
UniProt P16471: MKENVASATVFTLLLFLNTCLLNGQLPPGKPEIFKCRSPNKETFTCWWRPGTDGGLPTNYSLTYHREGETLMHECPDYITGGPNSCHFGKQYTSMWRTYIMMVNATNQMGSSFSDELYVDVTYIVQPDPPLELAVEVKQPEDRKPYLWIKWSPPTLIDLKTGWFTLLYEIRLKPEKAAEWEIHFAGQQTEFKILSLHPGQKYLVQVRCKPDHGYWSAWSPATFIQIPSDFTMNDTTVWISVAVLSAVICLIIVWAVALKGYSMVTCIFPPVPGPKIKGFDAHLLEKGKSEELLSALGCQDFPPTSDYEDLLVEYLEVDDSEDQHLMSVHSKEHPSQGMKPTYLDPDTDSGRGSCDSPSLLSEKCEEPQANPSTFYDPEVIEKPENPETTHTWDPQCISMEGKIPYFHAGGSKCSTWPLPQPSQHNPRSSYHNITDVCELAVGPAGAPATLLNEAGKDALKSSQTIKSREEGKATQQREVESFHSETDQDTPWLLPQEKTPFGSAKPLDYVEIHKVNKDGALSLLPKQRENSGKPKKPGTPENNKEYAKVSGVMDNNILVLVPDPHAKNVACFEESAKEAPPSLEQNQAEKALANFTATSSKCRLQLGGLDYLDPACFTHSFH

T1: murine PRLR ECD (mouse) (UniProt Q08501)
T1 sequence (looked up): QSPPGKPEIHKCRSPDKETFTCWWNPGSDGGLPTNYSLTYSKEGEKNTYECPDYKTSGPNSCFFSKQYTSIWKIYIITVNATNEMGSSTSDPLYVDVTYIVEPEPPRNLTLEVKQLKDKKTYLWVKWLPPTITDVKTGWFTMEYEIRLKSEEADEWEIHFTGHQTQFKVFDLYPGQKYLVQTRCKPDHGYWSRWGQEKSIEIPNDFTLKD

T2: rat PRLR ECD (rat) (UniProt P05710)
T2 sequence (looked up): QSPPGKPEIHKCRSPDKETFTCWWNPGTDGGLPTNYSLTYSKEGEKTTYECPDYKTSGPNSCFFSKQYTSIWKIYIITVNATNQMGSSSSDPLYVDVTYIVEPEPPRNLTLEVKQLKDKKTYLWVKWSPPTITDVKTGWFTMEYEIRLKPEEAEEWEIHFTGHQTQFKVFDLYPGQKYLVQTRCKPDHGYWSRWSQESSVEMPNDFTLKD

B1: he.06.642-2 (antibody, V domains shown)
VH: EVQLVESGGGLVQPGGSLRLSCAVSGFTFSSYGMSWVRQAPGKGLEWVATVSSGGTYTYYPDSVKGRFTISRDNSKNTLYLQMNSLRAEDTAVYYCARHRGNYYATYYYAMDYWGQGTLVTVSS
VL: DIVLTQSPDSLAVSLGERATINCKASKSVSTSGYTYMHWYQQKPGQPPKLLIYLASNRESGVPDRFSGSGSGTDFTLTISPVQAEDVATYYCQHSGELPPSFGQGTKLEIK
B2: he.06.275-4 (antibody, V domains shown)
VH: QVQLQESGPGLVKPSQTLSLTCTVSGYSITSDYAWNWIRQFPGKGLEWMGYISYSGSTSYNPSLKSRITISRDTSKNQFSLQLNSVTAADTAVYFCARDYGYVFDYWGQGTTLTVSS
VL: DVQITQSPSSLSASPGDRITLTCRASKNIYKYLAWYQEKPGKANKLLIYSGSTLHSGIPSRFSGSGSGTDFTLTISSLQPEDFAMYYCQQHNDYPYTFGQGTKLEIK
B3: he.06.275-2 (antibody, V domains shown)
VH: B2 VH
VL: B2 VL with A43T, K45N
B4: he.06.275-3 (antibody, V domains shown)
VH: B2 VH with Q1D, S25T, G45K, V93T
VL: B2 VL

What was measured:
[1] = target: cynomolgus PRLR ECD (cynomolgus); assay: Biacore SPR, antibody covalently immobilized on CM4 chip
murine PRLR ECD (mouse) = target: T1, murine PRLR ECD (mouse); assay: as above
rat PRLR ECD (rat) = target: T2, rat PRLR ECD (rat); assay: as above
[2] = target: recombinant extracellular domain (ECD) of the human prolactin receptor (PRLR) (human) (UniProt P16471); assay: Biacore SPR
[3] = target: recombinant extracellular domain (ECD) of the human prolactin receptor (PRLR) (human) (UniProt P16471); assay: Biacore SPR, antibody covalently immobilized on CM4 chip

Row | Binder | binding [1] | binding (murine PRLR ECD (mouse)) | binding (rat PRLR ECD (rat)) | binding [2] | binding [3]
1 | B1 | binds | binds | binds |  | 
2 | B2 | binds |  |  | binds | binds
3 | B3 |  |  |  | binds | 
4 | B4 |  |  |  | binds | 
